# Experimental data reported in PMC12979858.
# Protein sequences, listed by entry. Tags and fused reporters are not part of them.
# UniProt Q8CGF6: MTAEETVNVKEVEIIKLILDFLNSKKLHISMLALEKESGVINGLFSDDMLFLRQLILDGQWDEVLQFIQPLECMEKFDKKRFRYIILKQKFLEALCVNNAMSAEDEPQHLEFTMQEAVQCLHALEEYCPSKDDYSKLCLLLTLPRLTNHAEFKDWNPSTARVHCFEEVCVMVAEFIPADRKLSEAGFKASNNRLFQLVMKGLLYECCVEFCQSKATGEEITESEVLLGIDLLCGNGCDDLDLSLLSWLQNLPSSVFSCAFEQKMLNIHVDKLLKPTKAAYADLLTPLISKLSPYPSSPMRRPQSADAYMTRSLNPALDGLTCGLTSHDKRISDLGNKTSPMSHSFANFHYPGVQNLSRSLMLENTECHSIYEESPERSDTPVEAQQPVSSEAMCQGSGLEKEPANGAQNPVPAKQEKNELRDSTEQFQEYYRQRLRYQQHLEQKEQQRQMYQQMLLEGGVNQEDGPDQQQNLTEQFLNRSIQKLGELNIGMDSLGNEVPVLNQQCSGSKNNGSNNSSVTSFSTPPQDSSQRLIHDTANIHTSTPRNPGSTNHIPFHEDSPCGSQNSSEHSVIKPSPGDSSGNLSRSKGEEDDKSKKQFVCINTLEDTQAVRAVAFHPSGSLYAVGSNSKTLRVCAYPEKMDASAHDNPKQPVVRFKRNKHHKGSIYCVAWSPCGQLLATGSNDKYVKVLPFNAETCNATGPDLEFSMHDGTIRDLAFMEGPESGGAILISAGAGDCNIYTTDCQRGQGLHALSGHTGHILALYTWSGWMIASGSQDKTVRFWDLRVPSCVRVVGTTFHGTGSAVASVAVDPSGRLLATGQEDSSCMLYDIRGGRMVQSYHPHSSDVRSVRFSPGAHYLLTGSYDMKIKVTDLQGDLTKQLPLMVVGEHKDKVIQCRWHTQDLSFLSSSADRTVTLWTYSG
# UniProt A9Q751: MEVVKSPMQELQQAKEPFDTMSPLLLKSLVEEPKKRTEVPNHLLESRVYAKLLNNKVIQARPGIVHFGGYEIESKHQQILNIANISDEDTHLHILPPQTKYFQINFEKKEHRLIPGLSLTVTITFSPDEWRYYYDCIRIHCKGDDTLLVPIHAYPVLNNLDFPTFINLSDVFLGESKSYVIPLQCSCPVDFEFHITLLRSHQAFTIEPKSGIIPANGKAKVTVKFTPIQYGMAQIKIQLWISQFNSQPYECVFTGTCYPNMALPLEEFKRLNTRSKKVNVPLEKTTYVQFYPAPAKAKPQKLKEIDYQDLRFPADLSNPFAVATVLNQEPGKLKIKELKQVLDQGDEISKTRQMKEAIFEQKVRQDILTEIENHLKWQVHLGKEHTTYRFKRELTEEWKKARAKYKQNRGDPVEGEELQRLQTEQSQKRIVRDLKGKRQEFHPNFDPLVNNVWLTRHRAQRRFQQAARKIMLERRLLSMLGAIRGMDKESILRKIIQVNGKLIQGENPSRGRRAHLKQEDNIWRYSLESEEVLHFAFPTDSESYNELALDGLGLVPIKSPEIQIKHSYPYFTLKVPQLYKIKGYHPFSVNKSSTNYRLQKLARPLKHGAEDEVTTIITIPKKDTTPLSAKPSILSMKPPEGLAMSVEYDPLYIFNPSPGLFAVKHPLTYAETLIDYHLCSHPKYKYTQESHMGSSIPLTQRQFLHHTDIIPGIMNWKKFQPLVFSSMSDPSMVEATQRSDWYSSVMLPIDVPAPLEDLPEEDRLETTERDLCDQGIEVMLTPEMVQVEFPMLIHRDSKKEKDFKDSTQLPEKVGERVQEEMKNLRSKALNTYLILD
# UniProt E9Q793: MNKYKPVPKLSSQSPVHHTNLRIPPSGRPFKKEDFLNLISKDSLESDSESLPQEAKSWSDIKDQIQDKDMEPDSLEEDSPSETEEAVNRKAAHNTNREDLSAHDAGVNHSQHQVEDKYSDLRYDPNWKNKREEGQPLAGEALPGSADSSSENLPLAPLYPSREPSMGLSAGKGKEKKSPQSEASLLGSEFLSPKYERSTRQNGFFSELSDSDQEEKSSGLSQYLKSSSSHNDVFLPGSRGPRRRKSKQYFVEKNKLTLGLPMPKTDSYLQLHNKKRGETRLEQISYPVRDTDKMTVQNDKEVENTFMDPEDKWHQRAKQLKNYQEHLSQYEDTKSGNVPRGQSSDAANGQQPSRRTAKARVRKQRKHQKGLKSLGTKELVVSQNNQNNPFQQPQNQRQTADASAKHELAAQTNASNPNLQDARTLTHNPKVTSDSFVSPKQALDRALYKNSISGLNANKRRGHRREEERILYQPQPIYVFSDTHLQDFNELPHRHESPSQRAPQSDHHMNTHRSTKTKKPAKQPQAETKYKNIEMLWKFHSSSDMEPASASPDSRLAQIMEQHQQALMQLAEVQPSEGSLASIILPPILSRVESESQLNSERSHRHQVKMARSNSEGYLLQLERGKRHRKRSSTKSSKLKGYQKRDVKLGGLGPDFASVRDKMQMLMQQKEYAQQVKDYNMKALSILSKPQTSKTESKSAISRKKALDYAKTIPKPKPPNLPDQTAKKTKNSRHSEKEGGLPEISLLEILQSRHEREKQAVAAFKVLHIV
# UniProt A6PWD2: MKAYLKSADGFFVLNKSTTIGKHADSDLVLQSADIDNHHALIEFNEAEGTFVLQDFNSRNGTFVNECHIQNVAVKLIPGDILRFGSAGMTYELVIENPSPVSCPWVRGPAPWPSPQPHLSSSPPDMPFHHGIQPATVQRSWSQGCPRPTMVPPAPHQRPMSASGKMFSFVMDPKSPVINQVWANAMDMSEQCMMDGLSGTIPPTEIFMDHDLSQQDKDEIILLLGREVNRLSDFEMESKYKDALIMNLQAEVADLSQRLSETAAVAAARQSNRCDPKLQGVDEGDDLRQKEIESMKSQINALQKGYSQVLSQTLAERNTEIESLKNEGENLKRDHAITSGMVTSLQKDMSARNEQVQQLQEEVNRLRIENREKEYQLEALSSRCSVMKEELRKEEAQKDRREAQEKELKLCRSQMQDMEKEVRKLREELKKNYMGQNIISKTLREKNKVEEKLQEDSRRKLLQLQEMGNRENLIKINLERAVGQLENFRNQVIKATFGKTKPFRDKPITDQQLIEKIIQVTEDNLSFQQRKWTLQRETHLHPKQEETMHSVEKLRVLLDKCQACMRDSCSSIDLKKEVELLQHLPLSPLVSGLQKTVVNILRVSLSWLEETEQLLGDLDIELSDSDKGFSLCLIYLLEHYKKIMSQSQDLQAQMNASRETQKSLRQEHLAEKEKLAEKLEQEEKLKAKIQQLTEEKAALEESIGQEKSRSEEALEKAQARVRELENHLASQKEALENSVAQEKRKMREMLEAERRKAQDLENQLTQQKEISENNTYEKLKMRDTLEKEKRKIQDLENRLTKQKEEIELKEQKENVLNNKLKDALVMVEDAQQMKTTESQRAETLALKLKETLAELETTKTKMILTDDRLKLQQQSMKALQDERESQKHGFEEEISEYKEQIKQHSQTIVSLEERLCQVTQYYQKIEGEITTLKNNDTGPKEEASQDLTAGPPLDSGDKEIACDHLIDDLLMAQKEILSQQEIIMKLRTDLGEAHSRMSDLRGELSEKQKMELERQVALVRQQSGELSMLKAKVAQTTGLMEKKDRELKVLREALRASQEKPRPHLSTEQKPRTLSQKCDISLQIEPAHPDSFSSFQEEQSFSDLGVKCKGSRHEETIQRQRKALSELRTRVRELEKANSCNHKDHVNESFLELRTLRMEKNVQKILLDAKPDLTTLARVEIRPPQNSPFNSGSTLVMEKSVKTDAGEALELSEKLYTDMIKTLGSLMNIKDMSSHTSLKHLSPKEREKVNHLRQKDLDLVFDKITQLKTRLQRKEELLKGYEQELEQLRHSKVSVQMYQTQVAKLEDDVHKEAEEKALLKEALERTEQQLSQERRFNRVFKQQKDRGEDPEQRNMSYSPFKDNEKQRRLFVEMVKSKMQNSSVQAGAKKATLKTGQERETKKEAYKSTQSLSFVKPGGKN
# UniProt Q8R1Z4: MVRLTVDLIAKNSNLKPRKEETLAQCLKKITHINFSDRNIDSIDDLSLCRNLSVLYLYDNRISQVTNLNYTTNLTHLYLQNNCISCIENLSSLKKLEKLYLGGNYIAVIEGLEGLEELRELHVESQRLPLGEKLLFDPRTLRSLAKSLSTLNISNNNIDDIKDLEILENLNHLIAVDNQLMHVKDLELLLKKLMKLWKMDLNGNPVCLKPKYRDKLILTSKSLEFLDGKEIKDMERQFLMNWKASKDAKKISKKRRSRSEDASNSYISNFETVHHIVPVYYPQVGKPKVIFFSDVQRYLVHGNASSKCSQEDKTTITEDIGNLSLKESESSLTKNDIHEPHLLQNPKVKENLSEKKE
# UniProt Q3V0B4: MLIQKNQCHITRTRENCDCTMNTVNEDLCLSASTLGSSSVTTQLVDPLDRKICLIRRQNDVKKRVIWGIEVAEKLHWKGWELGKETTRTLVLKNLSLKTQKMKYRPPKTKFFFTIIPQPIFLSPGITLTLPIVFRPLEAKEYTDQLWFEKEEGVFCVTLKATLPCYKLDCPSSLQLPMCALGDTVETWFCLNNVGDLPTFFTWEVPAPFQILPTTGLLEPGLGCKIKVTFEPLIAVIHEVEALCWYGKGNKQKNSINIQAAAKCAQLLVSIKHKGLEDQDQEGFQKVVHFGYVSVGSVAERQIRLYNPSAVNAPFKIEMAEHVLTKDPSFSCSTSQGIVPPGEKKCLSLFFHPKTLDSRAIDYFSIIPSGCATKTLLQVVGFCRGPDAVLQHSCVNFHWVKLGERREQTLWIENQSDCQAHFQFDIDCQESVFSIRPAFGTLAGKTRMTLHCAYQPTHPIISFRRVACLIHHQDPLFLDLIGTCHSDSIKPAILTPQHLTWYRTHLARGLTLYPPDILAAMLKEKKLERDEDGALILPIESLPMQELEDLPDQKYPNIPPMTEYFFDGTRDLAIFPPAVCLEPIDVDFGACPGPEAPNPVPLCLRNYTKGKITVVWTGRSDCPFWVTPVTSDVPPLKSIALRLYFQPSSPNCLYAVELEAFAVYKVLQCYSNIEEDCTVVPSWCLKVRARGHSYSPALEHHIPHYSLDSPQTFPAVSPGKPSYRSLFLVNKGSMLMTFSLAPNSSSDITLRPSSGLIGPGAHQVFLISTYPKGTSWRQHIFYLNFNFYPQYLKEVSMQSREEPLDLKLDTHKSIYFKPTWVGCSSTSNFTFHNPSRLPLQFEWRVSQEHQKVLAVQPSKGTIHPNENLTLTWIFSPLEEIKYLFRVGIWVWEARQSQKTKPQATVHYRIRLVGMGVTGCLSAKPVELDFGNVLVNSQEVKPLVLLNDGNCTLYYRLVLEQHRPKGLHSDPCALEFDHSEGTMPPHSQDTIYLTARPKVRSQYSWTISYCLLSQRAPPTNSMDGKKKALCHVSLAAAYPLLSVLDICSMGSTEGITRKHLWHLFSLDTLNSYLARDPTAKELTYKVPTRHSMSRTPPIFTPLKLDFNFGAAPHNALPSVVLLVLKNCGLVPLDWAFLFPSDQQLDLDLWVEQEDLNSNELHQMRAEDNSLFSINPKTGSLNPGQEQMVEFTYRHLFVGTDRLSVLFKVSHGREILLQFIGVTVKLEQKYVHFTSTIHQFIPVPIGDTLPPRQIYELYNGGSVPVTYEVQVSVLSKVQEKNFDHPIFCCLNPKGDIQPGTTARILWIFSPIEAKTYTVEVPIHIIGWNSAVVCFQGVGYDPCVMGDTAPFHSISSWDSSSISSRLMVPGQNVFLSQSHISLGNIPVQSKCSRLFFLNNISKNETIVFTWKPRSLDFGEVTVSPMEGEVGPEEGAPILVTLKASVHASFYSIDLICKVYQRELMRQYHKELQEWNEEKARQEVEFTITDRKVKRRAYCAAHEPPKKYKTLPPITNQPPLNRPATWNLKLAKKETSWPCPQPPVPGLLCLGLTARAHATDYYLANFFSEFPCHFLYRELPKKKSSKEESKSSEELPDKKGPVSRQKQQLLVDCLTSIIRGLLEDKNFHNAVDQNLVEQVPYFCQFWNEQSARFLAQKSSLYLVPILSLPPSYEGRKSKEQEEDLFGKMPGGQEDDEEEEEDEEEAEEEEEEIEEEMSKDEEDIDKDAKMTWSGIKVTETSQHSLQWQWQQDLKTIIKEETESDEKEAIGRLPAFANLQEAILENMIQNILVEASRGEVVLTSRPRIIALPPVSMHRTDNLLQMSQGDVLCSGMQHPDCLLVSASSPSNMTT
# These are yes or no findings as the source states them, for the method shown. In cells and extracts the contact can be indirect. A yes stands for co-enrichment or nearness to the bait. Other partners may have been found.
# Target: APEX2-WDR47 (mouse) (UniProt Q8CGF6)
# Assay: proximity labelling; APEX2-WDR47 expressed in mEPCs by adenovirus; 500 uM biotin-phenol at 37 C for 30 min, 1 mM H2O2 for 1 min; lysis in RIPA buffer, biotinylated proteins on streptavidin-conjugated agarose beads, shotgun mass spectrometry; cutoff >= twofold peptide ratio against the mock-treated control
row,Substance,binding
1,ADGB (from UniProt G3UZ78 1-1657),binds
2,PCDP1 (from UniProt A9Q751 1-836),binds
3,JHY (endogenous) (from UniProt E9Q793 1-770),binds
4,RPGRIP1L (from UniProt Q8CG73 1-1264),binds
5,CEP290 (from UniProt Q6A078 1-2472),binds
6,FHAD1 (from UniProt A6PWD2 1-1420),binds
7,EFCAB6 (from UniProt Q6P1E8 1-1516),binds
8,SPEF2 (from UniProt Q8C9J3 1-1724),binds
9,LRRC67 (from UniProt Q8R1Z4 1-357),binds
10,SPAG17 (from UniProt Q5S003 1-2320),binds
11,DNAH3 (from UniProt Q8BW94 1-4083),binds
12,CCDC108 (from UniProt Q3V0B4 1-1847),binds
13,HYDIN (from UniProt Q80W93 1-5154),binds
